Values from PubChem BioAssay AID1259405 (NCATS, 2018).
Screen: 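Knock-downs that lift recombinant protein yield in hamster ovary cells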 (primary screen). System: Chinese hamster CHO-K1 ovary cells with stable secreted eGFP expression. Reagents: single siRNA against mouse genes, 0.8 pmol siRNA per well (2 µl of 400 nM stock). Duration: 3 days. Measured: 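Per-well intracellular GFP measured by laser scanning cytometry, plus viability from ATP luminescence, each relative to plate median of non-targeting control wells, in %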. Scale: GFP, % of control: higher = more GFP per well, higher productivity; viability (ATP), % of control: higher = more viable cells (more ATP). Call rule: 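a knock-down is called active if GFP reaches 120% or more of non-targeting control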.
Shown is a random part of about 50,000 reagents tested. About 4,000 of all reagents (8%) count as active. 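Mouse siRNA library applied to hamster cells; one well for each siRNA.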 The numbers tell different reagents against one gene apart. Reagent sequences are not shown.

target gene	reagent	GFP, % of control	viability (ATP), % of control	Outcome
Npepps	1	69.5	59.8	inactive
Npepps	2	49.5	43.5	inactive
Npepps	3	67	68.5	inactive
Prr5l	1	57.1	57.2	inactive
Prr5l	2	93.5	80.6	inactive
Prr5l	3	53.4	55.6	inactive
Pole3	1	72.9	85.7	inactive
Pole3	2	45.2	30	inactive
Pole3	3	104	77.7	inactive
Defb12	1	72.8	83.7	inactive
Defb12	2	86.9	52.3	inactive
Defb12	3	88.1	72.9	inactive
Dzank1	1	85	78.6	inactive
Dzank1	2	29.4	26	inactive
Dzank1	3	73.9	75.2	inactive
Ces2a	1	95.2	109	inactive
Ces2a	2	66.5	81.1	inactive
Ces2a	3	57.8	68.9	inactive
Sumo3	1	71.2	48.2	inactive
Sumo3	2	71.4	75.1	inactive
Sumo3	3	96	95.1	inactive
Ccng2	1	92.9	103	inactive
Ccng2	2	75.7	62.2	inactive
Mlxipl	1	98.8	128	inactive
Mlxipl	2	61.3	79.5	inactive
Mlxipl	3	81.2	85.4	inactive
Plce1	1	123	117	active
Plce1	2	149	130	active
Plce1	3	68.3	88.8	inactive
Helt	1	69.4	69.4	inactive
Helt	2	48.6	25.9	inactive
Helt	3	74.7	81.4	inactive
Nelfcd	1	86.8	91	inactive
Nelfcd	2	97.6	100	inactive
Nelfcd	3	128	146	active

3 entries already listed, ordered by “GFP, % of control”, lowest first:
target gene	reagent	GFP, % of control	viability (ATP), % of control	Outcome
Sumo3	2	71.4	75.1	inactive
Ccng2	1	92.9	103	inactive
Sumo3	3	96	95.1	inactive

More entries follow:
target gene	reagent	GFP, % of control	viability (ATP), % of control	Outcome
Il27	1	98.6	104	inactive
Il27	2	89.2	79.5	inactive
Il27	3	136	52.4	active
Tex22	1	68.8	45.9	inactive
Tex22	2	240	80.3	active
Tex22	3	63.3	80.6	inactive
Larp4b	1	55.7	51.8	inactive
Larp4b	2	73	80.9	inactive
Larp4b	3	82.1	74.2	inactive
Mrps30	1	63.3	58.1	inactive
Mrps30	2	70.9	89.7	inactive
Mrps30	3	64.6	56.1	inactive
Ptcra	1	56.7	55.2	inactive
Ptcra	2	77.2	80	inactive
Ptcra	3	59.1	57.9	inactive
Pyy	1	62.2	45.7	inactive
Pyy	2	75.8	67.6	inactive
Pyy	3	74.3	76.1	inactive
Trim37	1	73.9	80.3	inactive
Trim37	2	42	46.7	inactive
Trim37	3	57.9	68.4	inactive
H2bc1	1	81.9	73.4	inactive
H2bc1	2	74.3	87.8	inactive
H2bc1	3	117	99.6	inactive
